{"source": "paper PMC11075139", "about": "(RSC Advances, 2024)", "key": {"[1]": {"conditions": "PAMPA"}, "SH-SY5Y cells": {"tested_on": "SH-SY5Y cells", "assay": "Cell viability/neurotoxicity assay", "format": "cell-based", "conditions": "Homo sapiens, read-out: cell viability"}}}
{"smiles": "COc1cc2c(cc1OC)C(=O)C(CC1CCN(Cc3ccccc3)CC1)C2", "note": "(centres unmarked) [Donepezil, reference compound]", "values": [{"measurement": "Prediction of CNS penetration", "setting": "[1]", "value": "High (key: High: ‘CNS+’ (prediction of high BBB permeation); Pe (10^−6 cm s^−1) > 4.39; No: ‘CNS−’ (prediction of low BBB permeation); Pe (10^−6 cm s^−1) < 1.78)"}, {"measurement": "viability at 5 µM", "setting": "SH-SY5Y cells", "value": "~60", "unit": "%"}]}
